The numbers were not newly measured in patent CN103330941A, “一种紫杉醇注射剂的药物组合物” (Individual, priority 2013, dated 2013), which cites them from elsewhere.

For the series the following is noted: cited from earlier work.

Values after ≈ are worked out from the molar mass of the structure shown.

With `CC(=O)O[C@H]1C(=O)[C@@]2(C)[C@H]([C@H](OC(=O)c3ccccc3)[C@]3(O)C[C@H](OC(=O)[C@H](O)[C@@H](NC(=O)c4ccccc4)c4ccccc4)C(C)=C1C3(C)C)[C@]1(OC(C)=O)CO[C@@H]1C[C@@H]2O` [紫杉醇, 5β,20-环氧-1,2α,4,7β,10β,13α-六羟基紫杉烷-11-烯-9-酮-4,10-二乙酸酯-2-苯甲酸酯-13[(2’R,3’S)-N-苯甲酰-3-苯基异丝氨酸酯]], the solubility in water was 6 µg/mL (≈ 7.03 µM).
